Paper PMC4686221
These are yes or no findings as the source states them, for the method shown. For some of these results: Binding seen in cells or lysates may run through a third protein. Some results given as binding are weak or reduced against the parent protein; the word gives no strength. Each block holds one substance with its values, some of them ahead of it.

The chains behind the UniProt entries cited, without tags or fusion partners. Where a name states a change or a piece, a line headed by the entry shows the natural chain unless it says otherwise. A line that says so, or that is headed by a name, gives the form on record, which may keep a tag or linker. Residues count along the entry.
UniProt P48432: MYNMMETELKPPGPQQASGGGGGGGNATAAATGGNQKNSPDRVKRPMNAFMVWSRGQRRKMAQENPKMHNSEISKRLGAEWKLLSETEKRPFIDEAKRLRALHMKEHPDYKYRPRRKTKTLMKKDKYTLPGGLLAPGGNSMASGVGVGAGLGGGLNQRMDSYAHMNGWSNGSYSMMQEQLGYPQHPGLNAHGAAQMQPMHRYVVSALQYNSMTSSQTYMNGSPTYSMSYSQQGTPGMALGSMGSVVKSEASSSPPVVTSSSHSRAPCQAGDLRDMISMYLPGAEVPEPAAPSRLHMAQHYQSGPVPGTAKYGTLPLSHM
FLAG-HA-tagged Sox2 (1–123): residues 1-123 of P48432
UniProt Q60793: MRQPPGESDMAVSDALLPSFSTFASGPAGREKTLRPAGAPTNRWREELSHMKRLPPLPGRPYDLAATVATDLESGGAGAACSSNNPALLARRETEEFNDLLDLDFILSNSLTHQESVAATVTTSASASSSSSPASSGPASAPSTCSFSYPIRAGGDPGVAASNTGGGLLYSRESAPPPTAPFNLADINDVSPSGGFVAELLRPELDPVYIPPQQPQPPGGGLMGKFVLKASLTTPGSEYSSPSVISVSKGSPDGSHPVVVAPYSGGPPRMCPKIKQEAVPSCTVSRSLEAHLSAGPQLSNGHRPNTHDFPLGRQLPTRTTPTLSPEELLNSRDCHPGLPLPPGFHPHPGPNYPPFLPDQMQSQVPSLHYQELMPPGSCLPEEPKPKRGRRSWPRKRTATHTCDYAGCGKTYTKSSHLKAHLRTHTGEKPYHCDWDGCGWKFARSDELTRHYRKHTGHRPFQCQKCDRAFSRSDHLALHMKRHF
UniProt P20263: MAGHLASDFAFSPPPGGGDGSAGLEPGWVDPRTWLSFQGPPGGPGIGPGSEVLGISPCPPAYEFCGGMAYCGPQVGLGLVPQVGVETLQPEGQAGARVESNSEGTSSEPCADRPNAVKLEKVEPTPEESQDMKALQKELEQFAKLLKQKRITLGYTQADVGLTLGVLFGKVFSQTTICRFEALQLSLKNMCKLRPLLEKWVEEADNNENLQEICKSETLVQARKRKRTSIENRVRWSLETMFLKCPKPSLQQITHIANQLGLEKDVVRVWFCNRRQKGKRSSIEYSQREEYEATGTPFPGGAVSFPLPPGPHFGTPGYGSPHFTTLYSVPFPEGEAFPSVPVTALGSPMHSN
UniProt P01108: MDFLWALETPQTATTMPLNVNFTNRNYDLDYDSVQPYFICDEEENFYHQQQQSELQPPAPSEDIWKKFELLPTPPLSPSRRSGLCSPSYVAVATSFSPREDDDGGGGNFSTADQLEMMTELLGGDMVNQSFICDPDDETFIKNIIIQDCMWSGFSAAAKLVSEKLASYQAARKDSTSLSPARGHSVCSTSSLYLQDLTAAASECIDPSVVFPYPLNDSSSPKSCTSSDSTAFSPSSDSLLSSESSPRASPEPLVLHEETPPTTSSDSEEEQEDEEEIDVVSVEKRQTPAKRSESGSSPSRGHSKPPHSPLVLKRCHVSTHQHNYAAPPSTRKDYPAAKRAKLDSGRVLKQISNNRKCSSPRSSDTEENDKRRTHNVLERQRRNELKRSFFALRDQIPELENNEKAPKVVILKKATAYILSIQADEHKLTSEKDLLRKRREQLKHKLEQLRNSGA
UniProt Q9UBL3: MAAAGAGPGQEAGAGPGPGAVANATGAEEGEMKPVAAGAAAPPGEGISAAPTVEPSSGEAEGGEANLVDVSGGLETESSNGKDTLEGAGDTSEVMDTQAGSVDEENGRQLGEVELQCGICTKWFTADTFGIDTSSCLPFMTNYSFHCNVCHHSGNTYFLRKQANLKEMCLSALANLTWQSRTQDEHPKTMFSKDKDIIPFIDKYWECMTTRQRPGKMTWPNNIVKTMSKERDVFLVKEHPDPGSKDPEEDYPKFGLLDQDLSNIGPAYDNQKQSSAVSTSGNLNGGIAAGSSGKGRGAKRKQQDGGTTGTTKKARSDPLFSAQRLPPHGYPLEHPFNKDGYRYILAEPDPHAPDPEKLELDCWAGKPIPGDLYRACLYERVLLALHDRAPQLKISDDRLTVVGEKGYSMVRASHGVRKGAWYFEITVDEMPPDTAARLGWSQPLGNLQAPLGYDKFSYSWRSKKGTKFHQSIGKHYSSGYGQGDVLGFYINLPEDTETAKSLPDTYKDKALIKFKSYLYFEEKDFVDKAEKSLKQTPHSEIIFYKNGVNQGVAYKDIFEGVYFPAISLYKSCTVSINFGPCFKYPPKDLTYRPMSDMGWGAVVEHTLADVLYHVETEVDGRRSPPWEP
UniProt Q91X20: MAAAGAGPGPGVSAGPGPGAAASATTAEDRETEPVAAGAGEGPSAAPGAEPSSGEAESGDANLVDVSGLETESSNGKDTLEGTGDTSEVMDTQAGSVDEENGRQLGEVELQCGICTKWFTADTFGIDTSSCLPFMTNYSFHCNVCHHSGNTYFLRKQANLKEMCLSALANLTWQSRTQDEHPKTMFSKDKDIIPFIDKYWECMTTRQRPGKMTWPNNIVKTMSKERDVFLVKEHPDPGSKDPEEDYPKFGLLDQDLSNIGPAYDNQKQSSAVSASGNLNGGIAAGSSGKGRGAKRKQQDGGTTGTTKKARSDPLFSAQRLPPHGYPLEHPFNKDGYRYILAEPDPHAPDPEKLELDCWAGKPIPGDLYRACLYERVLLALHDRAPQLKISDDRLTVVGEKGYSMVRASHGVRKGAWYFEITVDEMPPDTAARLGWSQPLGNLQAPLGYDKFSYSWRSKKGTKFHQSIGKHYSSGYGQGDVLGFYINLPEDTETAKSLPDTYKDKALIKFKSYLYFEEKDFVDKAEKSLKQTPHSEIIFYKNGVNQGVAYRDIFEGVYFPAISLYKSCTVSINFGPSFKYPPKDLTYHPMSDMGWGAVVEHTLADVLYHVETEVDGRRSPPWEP

What was measured:
[1] = biological target: FLAG-HA-tagged Sox2 (1–123) (mouse) (UniProt P48432); test: co-IP; 293T cells transiently transfected with FLAG-HA-tagged Sox2 truncation mutants; anti-FLAG M2 resin, 4°C overnight, BC150 (150 mM KCl), 0.05% NP40; western blot of endogenous subunits
[2] = biological target: FLAG-HA-tagged mouse Klf4 (stably expressed in Flp-In T-REx-293 cells) (mouse) (UniProt Q60793); test: co-IP; Flp-In T-REx-293 cells stably expressing one FLAG-HA-tagged mouse factor, doxycycline 48 h; anti-FLAG M2 resin, 4°C overnight, BC150 (150 mM KCl), 0.05% NP40; western blot of endogenous subunits
[3] = biological target: FLAG-HA-tagged mouse Sox2 (stably expressed in Flp-In T-REx-293 cells) (mouse) (UniProt P48432); test: as above
[4] = biological target: FLAG-HA-tagged mouse Oct4 (stably expressed in Flp-In T-REx-293 cells) (mouse) (UniProt P20263); test: as above
[5] = biological target: FLAG-HA-tagged mouse Myc (lentiviral, expressed in MEFs) (mouse) (UniProt P01108); test: co-IP; MEFs infected with lentivirus for one FLAG-HA-tagged reprogramming factor, doxycycline 48 h; anti-FLAG M2 resin, 4°C overnight, BC150 (150 mM KCl), 0.05% NP40; western blot of endogenous subunits
[6] = biological target: FLAG-HA-tagged mouse Sox2 (lentiviral, expressed in MEFs) (mouse) (UniProt P48432); test: as above
[7] = biological target: His-tagged mouse Sox2 (mouse) (UniProt P48432); test: pull-down; 4 μg His-Sox2 on Ni-NTA resin, pre-incubated with 1% BSA, 400 ng purified F-Ash2l or F-Wdr5 added, 4°C overnight; 50 mM Tris pH 7.4, 300 mM NaCl, 10% glycerol, 0.1% NP40, 30 mM imidazole; anti-FLAG western blot; both purified

binding [1]: binds
binding [2]: binds
binding [3]: binds
binding [4]: binds
Substance: endogenous Ash2l (293 and 293T cells) (from UniProt Q9UBL3 1-628)

binding [5]: binds
binding [6]: binds
Substance: endogenous Ash2l (MEFs) (from UniProt Q91X20 1-623)

binding [7]: binds
Substance: FLAG-tagged Ash2l (from UniProt Q9UBL3 1-628)
